The list shows only some results of the screen, not a fair sample: it gathers tests that were run many times, whatever their T/C, doses with no T/C, and many T/C values between a quarter and a half above the control. Further doses and runs are listed elsewhere. T/C is the treated group as % of the vehicle group. Some entries give survivors of the animals treated and no T/C: the source holds a T/C of zero for them, seemingly a mark for toxic or unscored doses. Some survivor counts are full or nearly so, which does not show that the dose was tolerated: survival well below the control is almost never listed, so the zero probably covers shortened survival too. Survivors were counted at the toxicity check, usually on the fifth day, unless a day is given; later deaths do not show. Schedules are NCI's codes, taken here to give the interval after Q, in days (D) or hours (H), and the number of doses after X. For survival time, this PubChem deposit counts one and a half times the control or more as active, and values a quarter to a half above the control carry no call in these data; other NCI protocols may use other cut-offs.
Tested on: P388 leukemia ip, CD2F1 mice, survival T/C
Assay: NCI In Vivo Anticancer Drug Screen. Data for tumor model P388 Leukemia (intraperitoneal) in CD2F1 (CDF1) mice
Details: T/C endpoint: median survival time, higher T/C = longer survival
[1] = dose: 50.0 mg/kg/injection, schedule: Q01DX009 (ip), vehicle: water

Compound: COc1c(O)c2c(c3cc(C(=O)N4CCc5c4c(O)c(OC)c4[nH]c(C(=O)N6CC7CC78C6=CC(=O)c6[nH]cc(C)c68)cc54)[nH]c13)CCN2C(N)=O (stereo not given)
- T/C (dose: 0.01 mg/kg/injection, schedule: Q04DX003 (ip), vehicle: DMSO): 135 % of control
- T/C (dose: 0.02 mg/kg/injection, schedule: Q04DX003 (ip), vehicle: DMSO): 137 % of control
- T/C (dose: 0.04 mg/kg/injection, schedule: Q04DX003 (ip), vehicle: DMSO): 147 % of control
- T/C (dose: 0.05 mg/kg/injection, schedule: Q04DX003 (ip), vehicle: DMSO): 127 % of control
- T/C (dose: 0.09 mg/kg/injection, schedule: Q04DX003 (ip), vehicle: DMSO): 126 % of control
- T/C (dose: 0.11 mg/kg/injection, schedule: Q04DX003 (ip), vehicle: DMSO): 136 % of control
- T/C (dose: 0.15 mg/kg/injection, schedule: Q04DX003 (ip), vehicle: DMSO): 131 % of control
- survivor count (dose: 0.18 mg/kg/injection, schedule: Q04DX003 (ip), vehicle: DMSO): 8 of 8
- T/C (dose: 0.25 mg/kg/injection, schedule: Q04DX003 (ip), vehicle: DMSO): 144 % of control
- survivor count (dose: 0.3 mg/kg/injection, schedule: Q04DX003 (ip), vehicle: DMSO): 8 of 8
- survivor count (dose: 0.3 mg/kg/injection, schedule: Q04DX003 (ip), vehicle: other): 6 of 6
- survivor count (dose: 1.0 mg/kg/injection, schedule: Q04DX003 (ip), vehicle: other): 3 of 6
- T/C (dose: 3.0 micrograms/kg/injection, schedule: Q04DX003 (ip), vehicle: other): 145 % of control
- T/C (dose: 6.0 micrograms/kg/injection, schedule: Q01DX009 (ip), vehicle: other): 131 % of control
- T/C (dose: 9.0 micrograms/kg/injection, schedule: Q01DX009 (ip), vehicle: other): 129 % of control
- T/C (dose: 13.5 micrograms/kg/injection, schedule: Q01DX009 (ip), vehicle: other): 136 % of control
- T/C (dose: 30.0 micrograms/kg/injection, schedule: Q04DX003 (ip), vehicle: other): 131 % of control
- T/C (dose: 38.9 micrograms/kg/injection, schedule: Q04DX003 (ip), vehicle: DMSO): 147 % of control
- T/C (dose: 38.9 micrograms/kg/injection, schedule: Q04DX003 (ip), vehicle: saline): 146 % of control
- T/C (dose: 45.0 micrograms/kg/injection, schedule: Q04DX003 (ip), vehicle: other): 141 % of control
- T/C (dose: 67.5 micrograms/kg/injection, schedule: Q04DX003 (ip), vehicle: other): 140 % of control
- T/C (dose: 108.0 micrograms/kg/injection, schedule: Q04DX003 (ip), vehicle: saline): 143 % of control
- T/C (dose: 180.0 micrograms/kg/injection, schedule: Q04DX003 (ip), vehicle: saline): 130 % of control
- T/C (dose: 300.0 micrograms/kg/injection, schedule: Q01DX001 (ip), vehicle: other): 146 % of control
- T/C (dose: 300.0 micrograms/kg/injection, schedule: Q04DX003 (ip), vehicle: DMSO): 135 % of control
- survivor count (dose: 300.0 micrograms/kg/injection, schedule: Q04DX003 (ip), vehicle: other): 5 of 6

Compound: CCc1c(-c2ccccc2)nc(N)nc1-c1nc(N)nc(-c2ccccc2)c1CC
- survivor count (dose: 240.0 mg/kg/injection, schedule: Q01DX005 (ip), vehicle: saline): 1 of 6

Compound: Cc1ccccc1-[n+]1noc(N)n1
- T/C (dose: 22.0 mg/kg/injection, schedule: Q01DX009 (ip), vehicle: water): 130 % of control
- T/C (dose: 25.0 mg/kg/injection, schedule: Q01DX009 (ip), vehicle: water): 129 % of control
- T/C (dose: 33.0 mg/kg/injection, schedule: Q01DX009 (ip), vehicle: water): 141 % of control
- T/C [1]: 146 % of control
- survivor count [1]: 5 of 6
- survivor count (dose: 75.0 mg/kg/injection, schedule: Q01DX009 (ip), vehicle: water): 4 of 6
- survivor count (dose: 100.0 mg/kg/injection, schedule: Q01DX009 (ip), vehicle: water): 0 of 6

Compound: CC1C[C@@H]2[C@H]([C@@H](O)C[C@@]3(C)[C@H]2CC[C@]3(O)C(=O)CF)[C@@]2(C)CCC(=O)C=C12 (stereo not given in full)
- survivor count (dose: 400.0 mg/kg/injection, schedule: Q01DX009 (ip), vehicle: saline with Tween-80): 6 of 6

Source: PubChem BioAssay AID330 (DTP/NCI, 2004)
